Laboratory results from PMC9453702, “Structure-function analysis of enterovirus protease 2A in complex with its essential host factor SETD3” (Nature Communications, 2022).
These are yes or no findings as the source states them, for the method shown. Binding can be weak; no strength is given. Where a sequence is shown, tags or fusion partners need not be part of it.

Experiments:
[1] = molecular target: coxsackievirus B3 protease 2A with C-terminal His6-tag (for biolayer interferometry) (coxsackievirus B3 (Nancy strain)); experiment: BLI; competition: His-tagged 2A on Ni-NTA biosensors, 3-fold dilution series of actin peptide (40 nM to 10 µM) with SETD3 constant at 310 nM; 20 mM Tris/HCl pH 8.0, 150 mM NaCl, 5% glycerol, 1 mM DTT; maximum binding against peptide concentration; both purified
[2] = molecular target: coxsackievirus B3 protease 2A with C-terminal His6-tag (for biolayer interferometry) (coxsackievirus B3 (Nancy strain)); experiment: BLI; competition: His-tagged 2A on Ni-NTA biosensors, 3-fold dilution series of actin peptide (40 nM to 10 µM) with SETD3 constant at 625 nM (620 nM in the methods); 20 mM Tris/HCl pH 8.0, 150 mM NaCl, 5% glycerol, 1 mM DTT; maximum binding against peptide concentration; both purified

B1: human SETD3, wild type (recombinant, tag cleaved) (enzyme, UniProt Q86TU7 1-594)
chain: MGKKSRVKTQKSGTGATATVSPKEILNLTSELLQKCSSPAPGPGKEWEEYVQIRTLVEKIRKKQKGLSVTFDGKREDYFPDLMKWASENGASVEGFEMVNFKEEGFGLRATRDIKAEELFLWVPRKLLMTVESAKNSVLGPLYSQDRILQAMGNIALAFHLLCERASPNSFWQPYIQTLPSEYDTPLYFEEDEVRYLQSTQAIHDVFSQYKNTARQYAYFYKVIQTHPHANKLPLKDSFTYEDYRWAVSSVMTRQNQIPTEDGSRVTLALIPLWDMCNHTNGLITTGYNLEDDRCECVALQDFRAGEQIYIFYGTRSNAEFVIHSGFFFDNNSHDRVKIKLGVSKSDRLYAMKAEVLARAGIPTSSVFALHFTEPPISAQLLAFLRVFCMTEEELKEHLLGDSAIDRIFTLGNSEFPVSWDNEVKLWTFLEDRASLLLKTYKTTIEEDKSVLKNHDLSVRAKMAIKLRLGEKEILEKAVKSAAVNREYYRQQMEEKAPLPKYEESNLGLLESSVGDSRLPLVLRNLEEEAGVQDALNIREAISKAKATENGLVNGENSIPNGTRSENESLNQESKRAVEDAKGSSSDSTAGVKE
B1 was tested, and the binding [1] was “binds” and the binding [2] was “binds”.
